In patent publication US20030114445A1, “N3-substituted 6-anilinopyrimidines and methods to treat-Gram-positive bacterial and mycoplasmal infections” (priority 2001, published 2003):

Tested on: B. subtilis
Test: Inhibition of bacterial growth on agar plates (MIC)
Format: cell-based
Conditions: 37° C., 24 hours
Experimental: Each compound is assayed against a panel of Bacillus, Enterococcus and Staphylococcus, and a Gram-negative bacterium Escherichia coli as negative control, grown in appropriate plate media solidified with 1.3% agar-agar. Stock solutions of the compounds in dimethylsulfoxide or water, depending on solubility, are added to sterile medium at a temperature of 60° C. This stock mixture is diluted with drug-free medium and used to make a series of Petri plates containing inhibitor in a series of two-fold serial dilutions, from about 80 to 0.625 μg/mL. One tenth mL of diluted bacteria containing 500-1000 colony-forming units (CFU) are plated and spread, and the plates incubated at 37° C. for 24 hours. MIC (minimum inhibitory concentration) is equivalent to the lowest concentration at which growth, i.e. colony formation, is not observed.

## CCc1cc(Nc2cc(=O)n(CCCCN3C[C@@H](C)O[C@@H](C)C3)c(=O)[nH]2)ccc1C (relative stereo)
  MIC B. subtilis: 2.5 µg/mL (≈ 6.03 µM)

In brackets after ≈: the same amount, converted by molar mass. Structures were worked out from names or drawings and are uncertain.
